According to the supplement of paper PMC7666118:
The other results are listed elsewhere or left out.

The chains behind the UniProt entries cited, without tags or fusion partners. Where a name states a change or a piece, a line headed by the entry shows the natural chain unless it says otherwise.
UniProt Q7Z7K0: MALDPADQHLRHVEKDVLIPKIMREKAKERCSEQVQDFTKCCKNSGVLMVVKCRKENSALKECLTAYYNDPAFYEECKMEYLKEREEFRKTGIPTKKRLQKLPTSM
UniProt P48509: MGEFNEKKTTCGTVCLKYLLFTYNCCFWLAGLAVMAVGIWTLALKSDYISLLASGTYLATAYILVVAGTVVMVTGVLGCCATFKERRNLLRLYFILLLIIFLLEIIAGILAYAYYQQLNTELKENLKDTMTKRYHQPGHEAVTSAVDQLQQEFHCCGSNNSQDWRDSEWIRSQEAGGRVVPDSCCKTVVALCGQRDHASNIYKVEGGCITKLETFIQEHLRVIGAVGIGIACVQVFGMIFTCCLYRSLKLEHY
UniProt Q8WUD6: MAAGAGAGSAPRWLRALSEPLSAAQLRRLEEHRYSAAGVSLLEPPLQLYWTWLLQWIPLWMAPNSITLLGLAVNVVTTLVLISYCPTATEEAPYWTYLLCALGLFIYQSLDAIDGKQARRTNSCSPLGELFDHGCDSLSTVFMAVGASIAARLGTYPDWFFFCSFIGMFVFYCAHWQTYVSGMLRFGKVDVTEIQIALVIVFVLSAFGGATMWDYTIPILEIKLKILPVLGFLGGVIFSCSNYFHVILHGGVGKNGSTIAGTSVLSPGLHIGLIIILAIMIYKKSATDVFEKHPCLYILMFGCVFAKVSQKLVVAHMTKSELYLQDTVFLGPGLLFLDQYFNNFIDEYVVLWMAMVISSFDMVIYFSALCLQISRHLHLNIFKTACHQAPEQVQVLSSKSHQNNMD
UniProt Q9UIV1, whole entry: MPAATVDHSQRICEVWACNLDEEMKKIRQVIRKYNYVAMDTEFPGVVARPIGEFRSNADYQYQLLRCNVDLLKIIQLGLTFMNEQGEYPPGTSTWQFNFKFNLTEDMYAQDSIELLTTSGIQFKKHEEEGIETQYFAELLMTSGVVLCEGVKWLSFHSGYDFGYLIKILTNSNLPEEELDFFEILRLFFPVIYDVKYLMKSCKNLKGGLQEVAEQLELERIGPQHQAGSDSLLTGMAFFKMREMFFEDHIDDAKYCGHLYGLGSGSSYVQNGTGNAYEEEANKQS
UniProt Q9ULG6: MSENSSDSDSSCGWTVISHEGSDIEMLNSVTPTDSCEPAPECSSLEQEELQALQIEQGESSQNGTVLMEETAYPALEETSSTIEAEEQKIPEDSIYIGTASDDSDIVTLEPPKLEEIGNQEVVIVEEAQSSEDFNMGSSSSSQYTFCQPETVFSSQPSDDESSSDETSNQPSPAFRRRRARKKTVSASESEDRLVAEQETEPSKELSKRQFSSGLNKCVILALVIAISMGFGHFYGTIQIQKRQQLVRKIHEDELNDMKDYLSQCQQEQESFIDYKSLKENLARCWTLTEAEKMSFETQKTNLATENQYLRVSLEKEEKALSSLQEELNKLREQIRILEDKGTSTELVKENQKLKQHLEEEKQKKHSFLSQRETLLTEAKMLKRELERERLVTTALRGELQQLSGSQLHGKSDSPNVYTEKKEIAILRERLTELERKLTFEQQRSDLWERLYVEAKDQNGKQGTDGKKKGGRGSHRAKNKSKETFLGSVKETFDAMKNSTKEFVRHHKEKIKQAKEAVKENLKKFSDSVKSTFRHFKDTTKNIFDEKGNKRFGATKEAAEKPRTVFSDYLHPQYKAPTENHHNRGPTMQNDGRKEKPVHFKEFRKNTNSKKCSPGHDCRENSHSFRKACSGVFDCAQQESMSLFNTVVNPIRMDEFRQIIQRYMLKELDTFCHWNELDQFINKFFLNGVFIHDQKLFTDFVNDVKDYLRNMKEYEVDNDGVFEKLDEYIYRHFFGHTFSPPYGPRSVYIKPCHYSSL
UniProt O95273: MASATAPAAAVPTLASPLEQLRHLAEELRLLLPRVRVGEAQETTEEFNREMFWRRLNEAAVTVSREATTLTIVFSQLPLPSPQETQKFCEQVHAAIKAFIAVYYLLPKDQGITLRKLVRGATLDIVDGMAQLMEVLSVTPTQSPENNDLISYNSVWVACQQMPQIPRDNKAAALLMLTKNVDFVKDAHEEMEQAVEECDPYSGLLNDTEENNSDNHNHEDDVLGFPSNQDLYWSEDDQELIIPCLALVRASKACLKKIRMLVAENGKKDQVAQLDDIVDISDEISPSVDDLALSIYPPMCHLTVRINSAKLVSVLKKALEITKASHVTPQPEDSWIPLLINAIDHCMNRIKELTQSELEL
UniProt Q9P219: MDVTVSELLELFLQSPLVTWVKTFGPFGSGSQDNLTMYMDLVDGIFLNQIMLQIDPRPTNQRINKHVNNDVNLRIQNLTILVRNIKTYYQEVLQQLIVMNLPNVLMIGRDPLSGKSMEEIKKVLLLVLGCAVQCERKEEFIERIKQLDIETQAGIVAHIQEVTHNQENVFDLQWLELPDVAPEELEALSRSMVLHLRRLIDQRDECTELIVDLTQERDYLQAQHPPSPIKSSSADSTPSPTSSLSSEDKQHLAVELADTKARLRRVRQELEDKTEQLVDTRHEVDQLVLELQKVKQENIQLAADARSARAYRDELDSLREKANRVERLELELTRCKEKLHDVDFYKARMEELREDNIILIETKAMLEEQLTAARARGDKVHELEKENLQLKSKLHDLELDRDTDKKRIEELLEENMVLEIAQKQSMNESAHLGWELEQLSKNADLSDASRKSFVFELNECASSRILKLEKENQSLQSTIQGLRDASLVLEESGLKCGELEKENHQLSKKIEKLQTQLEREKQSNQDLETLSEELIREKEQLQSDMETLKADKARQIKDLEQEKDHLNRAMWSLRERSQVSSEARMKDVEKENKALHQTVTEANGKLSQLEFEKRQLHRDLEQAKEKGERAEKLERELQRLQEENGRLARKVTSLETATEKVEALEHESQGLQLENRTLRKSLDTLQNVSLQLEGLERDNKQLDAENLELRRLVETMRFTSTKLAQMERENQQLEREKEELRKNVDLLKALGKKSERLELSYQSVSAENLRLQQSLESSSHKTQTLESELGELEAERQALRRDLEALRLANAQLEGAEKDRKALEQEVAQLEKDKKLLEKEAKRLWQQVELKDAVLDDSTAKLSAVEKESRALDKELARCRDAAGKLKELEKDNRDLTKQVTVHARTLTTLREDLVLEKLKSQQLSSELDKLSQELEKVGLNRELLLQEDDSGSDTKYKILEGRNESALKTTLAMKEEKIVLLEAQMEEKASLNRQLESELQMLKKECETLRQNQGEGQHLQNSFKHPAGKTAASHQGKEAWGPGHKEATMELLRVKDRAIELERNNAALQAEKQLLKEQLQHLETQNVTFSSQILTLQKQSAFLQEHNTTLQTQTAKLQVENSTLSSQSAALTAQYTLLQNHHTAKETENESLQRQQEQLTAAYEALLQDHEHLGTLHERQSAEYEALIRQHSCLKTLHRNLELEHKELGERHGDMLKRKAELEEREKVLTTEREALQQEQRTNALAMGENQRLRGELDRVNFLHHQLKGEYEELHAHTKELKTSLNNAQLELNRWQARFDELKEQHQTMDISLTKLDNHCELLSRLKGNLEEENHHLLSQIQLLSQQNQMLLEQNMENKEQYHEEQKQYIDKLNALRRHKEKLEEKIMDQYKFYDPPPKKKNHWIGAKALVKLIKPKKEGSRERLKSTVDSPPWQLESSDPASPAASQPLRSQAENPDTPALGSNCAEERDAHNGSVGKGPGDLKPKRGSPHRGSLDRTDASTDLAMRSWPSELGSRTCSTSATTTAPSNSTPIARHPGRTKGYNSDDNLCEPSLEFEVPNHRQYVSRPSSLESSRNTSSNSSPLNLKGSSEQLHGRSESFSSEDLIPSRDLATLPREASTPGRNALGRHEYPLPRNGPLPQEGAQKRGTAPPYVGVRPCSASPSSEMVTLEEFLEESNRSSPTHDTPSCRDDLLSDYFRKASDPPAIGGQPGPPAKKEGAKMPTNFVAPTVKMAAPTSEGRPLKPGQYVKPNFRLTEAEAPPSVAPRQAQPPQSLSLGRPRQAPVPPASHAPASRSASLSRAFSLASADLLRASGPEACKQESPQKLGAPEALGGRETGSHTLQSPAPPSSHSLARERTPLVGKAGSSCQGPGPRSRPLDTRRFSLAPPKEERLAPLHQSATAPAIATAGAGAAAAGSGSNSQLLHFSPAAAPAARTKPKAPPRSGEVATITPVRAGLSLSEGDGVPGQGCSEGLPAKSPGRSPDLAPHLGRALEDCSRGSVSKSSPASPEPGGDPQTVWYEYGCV
UniProt P30622: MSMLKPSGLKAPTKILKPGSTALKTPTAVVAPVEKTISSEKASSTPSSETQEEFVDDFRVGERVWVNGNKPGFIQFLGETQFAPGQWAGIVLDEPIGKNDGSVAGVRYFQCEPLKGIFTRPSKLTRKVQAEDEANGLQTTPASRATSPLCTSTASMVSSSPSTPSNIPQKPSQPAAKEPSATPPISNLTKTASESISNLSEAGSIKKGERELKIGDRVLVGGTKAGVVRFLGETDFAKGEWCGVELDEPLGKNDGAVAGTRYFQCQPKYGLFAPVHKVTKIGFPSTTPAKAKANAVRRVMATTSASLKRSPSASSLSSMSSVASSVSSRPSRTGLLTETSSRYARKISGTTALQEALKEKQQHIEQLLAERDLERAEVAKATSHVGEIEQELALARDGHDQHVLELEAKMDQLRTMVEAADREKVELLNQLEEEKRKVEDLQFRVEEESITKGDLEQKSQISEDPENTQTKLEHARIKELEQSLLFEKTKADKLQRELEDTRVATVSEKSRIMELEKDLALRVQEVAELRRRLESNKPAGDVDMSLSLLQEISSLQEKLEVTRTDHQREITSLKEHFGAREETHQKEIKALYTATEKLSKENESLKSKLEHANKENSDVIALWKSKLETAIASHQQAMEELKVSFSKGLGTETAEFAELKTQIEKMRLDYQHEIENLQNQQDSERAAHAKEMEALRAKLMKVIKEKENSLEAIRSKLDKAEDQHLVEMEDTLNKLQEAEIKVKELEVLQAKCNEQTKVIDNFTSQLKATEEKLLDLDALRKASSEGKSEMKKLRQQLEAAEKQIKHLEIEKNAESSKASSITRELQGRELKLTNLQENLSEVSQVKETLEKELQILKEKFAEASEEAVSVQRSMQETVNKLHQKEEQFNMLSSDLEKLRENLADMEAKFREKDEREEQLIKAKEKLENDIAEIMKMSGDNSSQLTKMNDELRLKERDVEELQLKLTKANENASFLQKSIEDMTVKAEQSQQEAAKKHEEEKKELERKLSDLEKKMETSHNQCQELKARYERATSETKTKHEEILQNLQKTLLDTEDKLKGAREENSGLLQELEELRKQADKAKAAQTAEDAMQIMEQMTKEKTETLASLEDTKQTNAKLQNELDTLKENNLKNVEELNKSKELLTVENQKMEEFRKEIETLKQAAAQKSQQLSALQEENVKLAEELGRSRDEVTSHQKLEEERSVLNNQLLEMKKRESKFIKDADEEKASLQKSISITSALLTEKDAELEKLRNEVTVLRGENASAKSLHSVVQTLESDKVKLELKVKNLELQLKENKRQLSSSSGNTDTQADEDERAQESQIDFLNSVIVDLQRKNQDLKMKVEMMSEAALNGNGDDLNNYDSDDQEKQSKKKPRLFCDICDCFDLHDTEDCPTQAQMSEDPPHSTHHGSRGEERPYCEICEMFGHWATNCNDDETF
UniProt P13987: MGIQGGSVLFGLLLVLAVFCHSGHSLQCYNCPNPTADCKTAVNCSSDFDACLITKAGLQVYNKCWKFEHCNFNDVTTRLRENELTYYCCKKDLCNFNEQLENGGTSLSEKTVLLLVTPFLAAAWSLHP
UniProt Q13112, whole entry, looked up: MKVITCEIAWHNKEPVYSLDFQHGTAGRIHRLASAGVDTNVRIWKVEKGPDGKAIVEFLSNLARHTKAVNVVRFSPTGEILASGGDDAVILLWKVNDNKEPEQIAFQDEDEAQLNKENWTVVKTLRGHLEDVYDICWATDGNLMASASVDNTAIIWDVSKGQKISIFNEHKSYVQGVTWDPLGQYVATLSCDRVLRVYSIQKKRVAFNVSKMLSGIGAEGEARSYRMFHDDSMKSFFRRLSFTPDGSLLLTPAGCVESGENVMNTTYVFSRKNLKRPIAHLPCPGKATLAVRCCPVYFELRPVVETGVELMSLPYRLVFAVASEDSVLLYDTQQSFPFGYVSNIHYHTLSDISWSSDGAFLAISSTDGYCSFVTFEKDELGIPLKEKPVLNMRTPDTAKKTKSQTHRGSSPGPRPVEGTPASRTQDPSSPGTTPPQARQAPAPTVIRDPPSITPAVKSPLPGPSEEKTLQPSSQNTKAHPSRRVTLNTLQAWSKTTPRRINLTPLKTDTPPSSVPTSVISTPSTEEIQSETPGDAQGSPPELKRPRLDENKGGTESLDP
UniProt Q96CS2: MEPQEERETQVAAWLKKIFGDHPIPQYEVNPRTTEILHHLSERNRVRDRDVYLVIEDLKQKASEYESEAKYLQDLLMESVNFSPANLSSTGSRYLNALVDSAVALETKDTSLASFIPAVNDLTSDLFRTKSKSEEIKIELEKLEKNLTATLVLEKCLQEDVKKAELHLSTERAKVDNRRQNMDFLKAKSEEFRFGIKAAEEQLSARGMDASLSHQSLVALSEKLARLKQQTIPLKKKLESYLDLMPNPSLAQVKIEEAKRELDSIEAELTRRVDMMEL

What follows are targets tested with COc1ccc(Cn2ccc3ccc(C(=O)NO)cc32)cc1 (assay: dose-dependent thermal stabilisation call (2D-TPP, DLPTP, 10% FDR) (binary (1 = stabilised)); higher = stabilised by the compound). Conditions: system: HL-60 intact cells; concentration range 0.04-10 µM.

Row | Target | dose-dependent thermal stabilisation call
1 | CKAP2 (UniProt Q8WWK9) | inactive: 0
2 | CNOT6 (UniProt Q9ULM6) | inactive: 0
3 | CMC1 (UniProt Q7Z7K0) | inactive: 0
4 | CDC5L (UniProt Q99459) | inactive: 0
5 | CNP (UniProt P09543) | inactive: 0
6 | CLPB (UniProt Q9H078) | inactive: 0
7 | CLYBL (UniProt Q8N0X4) | inactive: 0
8 | CD151 (UniProt P48509) | inactive: 0
9 | CDC25C (UniProt P30307) | inactive: 0
10 | CDC73 (UniProt Q6P1J9) | inactive: 0
11 | CHPT1 (UniProt Q8WUD6) | inactive: 0
12 | CDC2 (UniProt P06493) | inactive: 0
13 | CNOT2 (UniProt Q9NZN8) | inactive: 0
14 | CNOT7 (UniProt Q9UIV1) | inactive: 0
15 | CCDC21 (UniProt Q6P2H3) | inactive: 0
16 | CCPG1 (UniProt Q9ULG6) | active: 1
17 | CD81 (UniProt P60033) | inactive: 0
18 | CHD1L (UniProt Q86WJ1) | inactive: 0
19 | CHST12 (UniProt Q9NRB3) | inactive: 0

Row | Target | dose-dependent thermal stabilisation call
20 | CDV3 (UniProt Q9UKY7) | inactive: 0
21 | CCNDBP1 (UniProt O95273) | inactive: 0
22 | CCS (UniProt O14618) | inactive: 0
23 | CCDC88C (UniProt Q9P219) | inactive: 0
24 | CD4 (UniProt P01730) | inactive: 0
25 | CD3EAP (UniProt O15446) | inactive: 0
26 | CLIP1 (UniProt P30622) | inactive: 0
27 | CCNB1 (UniProt P14635) | inactive: 0
28 | CD69 (UniProt Q07108) | inactive: 0
29 | CD59 (UniProt P13987) | inactive: 0
30 | CDK6 (UniProt Q00534) | inactive: 0
31 | CDC23 (UniProt Q9UJX2) | inactive: 0
32 | CLN8 (UniProt Q9UBY8) | inactive: 0
33 | CLASP1 (UniProt Q7Z460) | inactive: 0
34 | CHAF1B (UniProt Q13112) | inactive: 0
35 | CCDC101 (UniProt Q96ES7) | inactive: 0
36 | CCBL2 (UniProt Q6YP21) | inactive: 0
37 | CCDC5 (UniProt Q96CS2) | inactive: 0

Some values from the entries so far.
For dose-dependent thermal stabilisation call, CHAF1B (UniProt Q13112) is entered as inactive: 0
For dose-dependent thermal stabilisation call, CCDC5 (UniProt Q96CS2) is entered as inactive: 0
